Measured values published in the supplement of paper PMC6411743.
± gives the standard deviation of the averaged measurements. The entries are a selection whose mix differs from that of the whole data set. Small differences around the control level are noise.

By UniProt entry, the sequences of proteins in these tests, tags left out. Where a name states a change or a piece, a line headed by the entry shows the natural chain unless it says otherwise.
UniProt Q8WXE1: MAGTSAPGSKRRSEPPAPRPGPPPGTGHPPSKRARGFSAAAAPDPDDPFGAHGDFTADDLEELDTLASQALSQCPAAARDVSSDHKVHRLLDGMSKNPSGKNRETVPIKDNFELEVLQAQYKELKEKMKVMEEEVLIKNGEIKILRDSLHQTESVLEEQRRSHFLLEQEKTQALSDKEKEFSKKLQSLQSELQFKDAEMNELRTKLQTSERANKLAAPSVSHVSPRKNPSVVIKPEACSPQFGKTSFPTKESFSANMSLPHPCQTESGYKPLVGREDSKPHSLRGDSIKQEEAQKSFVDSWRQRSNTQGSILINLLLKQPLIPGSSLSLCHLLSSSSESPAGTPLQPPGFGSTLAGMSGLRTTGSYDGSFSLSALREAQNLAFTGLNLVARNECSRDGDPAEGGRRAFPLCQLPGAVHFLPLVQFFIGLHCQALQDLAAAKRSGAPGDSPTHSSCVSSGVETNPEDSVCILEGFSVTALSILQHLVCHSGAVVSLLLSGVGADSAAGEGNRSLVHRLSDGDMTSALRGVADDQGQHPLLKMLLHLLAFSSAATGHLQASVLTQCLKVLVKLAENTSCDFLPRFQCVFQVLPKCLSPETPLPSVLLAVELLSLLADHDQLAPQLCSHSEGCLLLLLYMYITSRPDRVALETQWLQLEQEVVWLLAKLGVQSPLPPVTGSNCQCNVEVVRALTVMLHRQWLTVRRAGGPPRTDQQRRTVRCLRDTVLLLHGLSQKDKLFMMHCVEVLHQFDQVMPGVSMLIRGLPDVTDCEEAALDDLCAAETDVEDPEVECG
UniProt Q8TBA6: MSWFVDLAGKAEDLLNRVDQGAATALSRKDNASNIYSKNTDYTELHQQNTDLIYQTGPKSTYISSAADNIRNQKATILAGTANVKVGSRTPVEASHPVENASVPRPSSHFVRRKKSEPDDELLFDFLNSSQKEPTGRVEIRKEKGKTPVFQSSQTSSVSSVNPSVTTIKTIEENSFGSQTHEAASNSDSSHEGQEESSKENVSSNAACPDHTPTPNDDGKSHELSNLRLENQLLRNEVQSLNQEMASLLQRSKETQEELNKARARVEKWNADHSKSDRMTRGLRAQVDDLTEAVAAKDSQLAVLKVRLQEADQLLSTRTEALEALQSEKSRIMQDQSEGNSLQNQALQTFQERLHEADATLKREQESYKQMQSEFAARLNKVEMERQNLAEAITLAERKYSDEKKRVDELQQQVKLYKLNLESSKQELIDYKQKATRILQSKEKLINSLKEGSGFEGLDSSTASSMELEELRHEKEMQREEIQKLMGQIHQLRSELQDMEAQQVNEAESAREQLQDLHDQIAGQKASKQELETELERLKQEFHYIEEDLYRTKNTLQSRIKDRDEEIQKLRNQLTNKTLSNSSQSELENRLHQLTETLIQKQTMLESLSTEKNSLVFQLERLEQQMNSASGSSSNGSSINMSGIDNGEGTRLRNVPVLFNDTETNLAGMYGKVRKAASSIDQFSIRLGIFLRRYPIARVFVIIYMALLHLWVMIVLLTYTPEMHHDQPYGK
UniProt Q8TD26: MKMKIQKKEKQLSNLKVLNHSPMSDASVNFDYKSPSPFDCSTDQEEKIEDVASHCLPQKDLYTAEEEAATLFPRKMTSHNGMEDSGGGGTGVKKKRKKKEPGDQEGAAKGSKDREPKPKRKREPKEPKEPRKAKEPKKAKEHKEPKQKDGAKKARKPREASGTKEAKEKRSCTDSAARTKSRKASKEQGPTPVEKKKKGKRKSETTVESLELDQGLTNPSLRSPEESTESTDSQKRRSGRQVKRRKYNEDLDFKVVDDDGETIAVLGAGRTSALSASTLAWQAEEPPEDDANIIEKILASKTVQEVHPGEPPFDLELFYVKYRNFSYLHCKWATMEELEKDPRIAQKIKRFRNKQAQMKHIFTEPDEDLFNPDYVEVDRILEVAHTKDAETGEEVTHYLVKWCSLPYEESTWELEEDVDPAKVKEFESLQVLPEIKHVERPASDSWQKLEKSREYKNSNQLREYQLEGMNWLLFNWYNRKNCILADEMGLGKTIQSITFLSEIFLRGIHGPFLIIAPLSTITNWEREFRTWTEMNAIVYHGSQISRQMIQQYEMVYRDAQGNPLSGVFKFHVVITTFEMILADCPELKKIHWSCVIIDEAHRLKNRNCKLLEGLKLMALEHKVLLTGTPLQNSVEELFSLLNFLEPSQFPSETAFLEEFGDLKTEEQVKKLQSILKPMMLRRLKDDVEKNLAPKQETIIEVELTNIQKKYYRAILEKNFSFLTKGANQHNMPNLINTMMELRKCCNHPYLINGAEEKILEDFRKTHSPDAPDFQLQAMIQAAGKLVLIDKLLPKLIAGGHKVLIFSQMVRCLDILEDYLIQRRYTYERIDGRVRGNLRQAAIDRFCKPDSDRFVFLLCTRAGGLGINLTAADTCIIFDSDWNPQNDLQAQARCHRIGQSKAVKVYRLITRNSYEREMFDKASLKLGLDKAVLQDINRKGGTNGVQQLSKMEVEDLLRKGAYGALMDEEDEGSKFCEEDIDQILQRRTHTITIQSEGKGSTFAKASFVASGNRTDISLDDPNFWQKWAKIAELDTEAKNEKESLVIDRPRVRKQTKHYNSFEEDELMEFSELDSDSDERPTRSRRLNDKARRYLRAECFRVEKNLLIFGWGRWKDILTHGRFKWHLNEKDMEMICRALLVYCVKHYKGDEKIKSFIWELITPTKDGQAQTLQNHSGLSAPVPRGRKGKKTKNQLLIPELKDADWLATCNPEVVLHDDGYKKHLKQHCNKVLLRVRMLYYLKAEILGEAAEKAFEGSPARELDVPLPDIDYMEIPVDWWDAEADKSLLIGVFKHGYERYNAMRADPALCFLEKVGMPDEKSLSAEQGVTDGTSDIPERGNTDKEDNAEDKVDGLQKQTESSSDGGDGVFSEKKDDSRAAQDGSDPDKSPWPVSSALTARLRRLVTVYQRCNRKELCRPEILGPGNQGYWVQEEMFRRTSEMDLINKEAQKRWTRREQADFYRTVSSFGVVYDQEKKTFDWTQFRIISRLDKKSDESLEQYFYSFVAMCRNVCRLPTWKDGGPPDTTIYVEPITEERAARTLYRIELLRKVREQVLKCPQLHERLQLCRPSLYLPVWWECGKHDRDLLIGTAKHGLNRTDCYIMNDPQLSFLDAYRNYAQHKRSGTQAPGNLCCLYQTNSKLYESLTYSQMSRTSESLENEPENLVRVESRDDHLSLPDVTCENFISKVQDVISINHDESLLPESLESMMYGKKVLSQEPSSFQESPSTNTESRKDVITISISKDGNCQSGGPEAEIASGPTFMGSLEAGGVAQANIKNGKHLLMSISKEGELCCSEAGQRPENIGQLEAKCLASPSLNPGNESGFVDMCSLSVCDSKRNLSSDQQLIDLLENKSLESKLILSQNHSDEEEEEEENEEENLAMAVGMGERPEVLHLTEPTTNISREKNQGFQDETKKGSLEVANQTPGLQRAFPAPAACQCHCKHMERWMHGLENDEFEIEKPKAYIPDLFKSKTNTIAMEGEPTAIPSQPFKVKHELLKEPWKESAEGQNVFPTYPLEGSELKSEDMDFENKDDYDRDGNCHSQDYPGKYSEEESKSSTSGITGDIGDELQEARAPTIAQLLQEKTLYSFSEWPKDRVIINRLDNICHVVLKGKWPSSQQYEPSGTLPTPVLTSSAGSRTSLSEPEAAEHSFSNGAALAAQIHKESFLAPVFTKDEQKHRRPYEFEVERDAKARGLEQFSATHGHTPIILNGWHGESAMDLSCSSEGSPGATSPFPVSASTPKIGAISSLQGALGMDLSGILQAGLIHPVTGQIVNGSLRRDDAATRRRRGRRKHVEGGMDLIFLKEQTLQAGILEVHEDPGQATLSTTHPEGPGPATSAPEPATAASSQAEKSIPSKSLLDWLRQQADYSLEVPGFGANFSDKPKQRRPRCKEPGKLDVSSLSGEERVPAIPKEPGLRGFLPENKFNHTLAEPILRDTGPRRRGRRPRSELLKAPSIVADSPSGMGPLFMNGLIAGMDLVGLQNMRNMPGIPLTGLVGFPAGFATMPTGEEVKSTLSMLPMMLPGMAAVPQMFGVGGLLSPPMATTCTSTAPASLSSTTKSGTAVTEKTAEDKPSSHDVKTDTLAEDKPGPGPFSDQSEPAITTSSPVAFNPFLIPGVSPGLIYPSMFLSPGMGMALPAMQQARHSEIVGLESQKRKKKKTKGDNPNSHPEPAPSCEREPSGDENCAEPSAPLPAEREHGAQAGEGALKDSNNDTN
UniProt Q96AP4: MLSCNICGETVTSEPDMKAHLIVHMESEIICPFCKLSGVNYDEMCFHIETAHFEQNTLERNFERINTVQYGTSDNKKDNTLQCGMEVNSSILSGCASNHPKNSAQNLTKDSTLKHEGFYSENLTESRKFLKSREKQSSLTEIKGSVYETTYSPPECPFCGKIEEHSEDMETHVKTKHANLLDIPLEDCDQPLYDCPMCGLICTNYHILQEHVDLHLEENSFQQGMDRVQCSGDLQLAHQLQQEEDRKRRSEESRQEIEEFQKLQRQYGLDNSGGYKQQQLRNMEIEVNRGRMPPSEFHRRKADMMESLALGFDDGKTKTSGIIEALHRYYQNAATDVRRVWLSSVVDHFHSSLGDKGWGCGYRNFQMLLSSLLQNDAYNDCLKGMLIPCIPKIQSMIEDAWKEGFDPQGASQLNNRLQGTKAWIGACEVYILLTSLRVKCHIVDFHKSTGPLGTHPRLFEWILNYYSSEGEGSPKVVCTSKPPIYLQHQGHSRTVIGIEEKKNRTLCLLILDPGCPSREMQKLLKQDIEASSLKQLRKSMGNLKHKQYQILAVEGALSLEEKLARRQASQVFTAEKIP
UniProt Q8TBE0: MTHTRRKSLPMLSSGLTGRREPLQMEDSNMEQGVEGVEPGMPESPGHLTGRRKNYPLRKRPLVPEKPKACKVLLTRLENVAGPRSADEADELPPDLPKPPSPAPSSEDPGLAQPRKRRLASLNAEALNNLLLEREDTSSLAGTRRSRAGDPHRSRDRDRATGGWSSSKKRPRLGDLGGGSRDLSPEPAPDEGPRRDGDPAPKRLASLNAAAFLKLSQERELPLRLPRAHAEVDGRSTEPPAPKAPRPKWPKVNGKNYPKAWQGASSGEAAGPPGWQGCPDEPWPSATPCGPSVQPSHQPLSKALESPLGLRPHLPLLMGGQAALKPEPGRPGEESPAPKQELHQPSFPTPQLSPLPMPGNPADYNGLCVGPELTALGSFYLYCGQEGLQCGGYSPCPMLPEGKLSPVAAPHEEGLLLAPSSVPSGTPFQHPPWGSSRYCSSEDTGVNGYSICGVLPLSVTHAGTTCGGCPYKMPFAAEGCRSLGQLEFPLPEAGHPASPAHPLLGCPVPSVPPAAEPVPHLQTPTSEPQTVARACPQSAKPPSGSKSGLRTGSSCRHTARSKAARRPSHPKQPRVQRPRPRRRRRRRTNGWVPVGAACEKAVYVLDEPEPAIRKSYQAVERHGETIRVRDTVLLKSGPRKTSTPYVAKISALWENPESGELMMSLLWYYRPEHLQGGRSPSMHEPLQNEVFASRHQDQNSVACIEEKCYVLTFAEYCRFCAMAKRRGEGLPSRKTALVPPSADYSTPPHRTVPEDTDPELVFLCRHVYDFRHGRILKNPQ
UniProt Q92499: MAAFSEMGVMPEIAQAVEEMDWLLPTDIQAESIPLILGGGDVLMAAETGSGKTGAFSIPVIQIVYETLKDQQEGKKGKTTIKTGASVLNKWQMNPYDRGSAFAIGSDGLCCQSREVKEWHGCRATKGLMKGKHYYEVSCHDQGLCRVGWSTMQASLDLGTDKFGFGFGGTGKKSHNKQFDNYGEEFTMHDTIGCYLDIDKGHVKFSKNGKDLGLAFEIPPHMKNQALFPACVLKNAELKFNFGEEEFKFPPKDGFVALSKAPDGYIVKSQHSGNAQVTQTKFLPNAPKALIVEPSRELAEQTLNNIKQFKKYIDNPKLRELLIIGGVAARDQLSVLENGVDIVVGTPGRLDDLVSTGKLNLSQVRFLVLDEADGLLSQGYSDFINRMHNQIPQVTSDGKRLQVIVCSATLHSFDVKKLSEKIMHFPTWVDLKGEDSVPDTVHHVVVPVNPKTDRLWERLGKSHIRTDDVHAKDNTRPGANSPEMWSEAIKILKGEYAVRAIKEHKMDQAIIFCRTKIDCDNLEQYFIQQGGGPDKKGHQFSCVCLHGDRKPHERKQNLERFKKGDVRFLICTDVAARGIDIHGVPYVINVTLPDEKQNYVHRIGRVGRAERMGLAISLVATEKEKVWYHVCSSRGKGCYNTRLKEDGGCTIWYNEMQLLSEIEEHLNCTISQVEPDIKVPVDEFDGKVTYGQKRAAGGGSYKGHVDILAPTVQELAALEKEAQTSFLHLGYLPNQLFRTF
UniProt Q969G6: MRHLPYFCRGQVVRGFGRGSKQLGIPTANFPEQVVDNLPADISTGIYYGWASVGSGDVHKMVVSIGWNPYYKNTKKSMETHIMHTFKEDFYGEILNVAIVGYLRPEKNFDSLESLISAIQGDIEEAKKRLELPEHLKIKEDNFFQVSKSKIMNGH

Compound: Nc1ncnc2c1ncn2[C@@H]1O[C@H](COP(=O)(O)OP(=O)(O)OP(=O)(O)O)[C@@H](O)[C@H]1O [adenosine triphosphate]
Test: NP40-soluble protein abundance relative to vehicle (solubility fold change) (ratio); higher = more soluble protein in presence of ATP
In short: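 Crude Jurkat lysate, prepared by Dounce homogenisation, was exposed to eight concentrations from 0.1 to 10 mM for 10 min at room temperature and then 3 min at 37 °C. Solubilisation used 0.8% NP40 with benzonase for 60 min at 4 °C, followed by ultracentrifugation and TMT labelling of the supernatant for LC-MS/MS. After vsn normalisation of intensities, each value is the fold change against the detergent-processed vehicle within each replicate, across three independent experiments.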

Target	NP40-soluble protein abundance (concentration: 0.1mM)	NP40-soluble protein abundance (concentration: 0.5mM)
MZB1 (UniProt Q8WU39)	0.953 ± 0.06	0.921 ± 0.088
RNASEH2C (UniProt Q8TDP1)	0.971 ± 0.018	0.959 ± 0.048
UniProt Q92581-3|Q92581-2	1.06 ± 0.096	1.03 ± 0.018
MAML1 (UniProt Q92585)	0.961 ± 0.11	0.904 ± 0.088
PPIL4 (UniProt Q8WUA2)	0.975 ± 0.04	1 ± 0.065
UniProt Q92890 and related entries	1.02 ± 0.045	1.01 ± 0.033
IP6K1 (UniProt Q92551)	1.08 ± 0.14	1.02 ± 0.057
UniProt Q8WU76 and related entries	1.01 ± 0.062	1.01 ± 0.082
UniProt Q8TEX9 and related entries	0.969 ± 0.025	0.942 ± 0.066
PIBF1 (UniProt Q8WXW3)	1.12 ± 0.12	1.004 ± 0.0096
CHMP7 (UniProt Q8WUX9)	1.003 ± 0.0066	0.991 ± 0.063
UniProt Q92600 and related entries	0.831 ± 0.16	0.839 ± 0.2
UniProt Q969S9 and related entries	1.06 ± 0.056	1.05 ± 0.068
NSMCE1 (UniProt Q8WV22)	1.03 ± 0.082	0.984 ± 0.03
ISL2 (UniProt Q96A47)	0.962 ± 0.044	1.01 ± 0.056
LRRC59 (UniProt Q96AG4)	0.9497 ± 0.009	0.963 ± 0.024
UniProt Q92973 and related entries	0.987 ± 0.032	0.967 ± 0.019
ANKS1A (UniProt Q92625)	0.956 ± 0.013	0.929 ± 0.023
UniProt Q8WV93	0.929 ± 0.036	0.908 ± 0.053
UniProt Q8TCZ2 and related entries	0.931 ± 0.056	0.955 ± 0.054
KIAA1143 (UniProt Q96AT1)	0.919 ± 0.11	0.883 ± 0.048

Target	NP40-soluble protein abundance (concentration: 0.1mM)	NP40-soluble protein abundance (concentration: 0.5mM)
PCNP (UniProt Q8WW12)	0.869 ± 0.056	0.869 ± 0.1
DTD1 (UniProt Q8TEA8)	1 ± 0.017	0.992 ± 0.027
UniProt Q8WXE1 and related entries	1.05 ± 0.046	0.981 ± 0.047
ERCC4 (UniProt Q92889)	1.04 ± 0.072	1.04 ± 0.077
CCDC47 (UniProt Q96A33)	1.03 ± 0.022	1.02 ± 0.04
PRPF31 (UniProt Q8WWY3)	1.05 ± 0.037	1.11 ± 0.049
NANP (UniProt Q8TBE9)	1.08 ± 0.045	1.04 ± 0.037
NEK9 (UniProt Q8TD19)	1.02 ± 0.048	1 ± 0.015
UniProt Q8TBA6 and related entries	0.992 ± 0.018	0.965 ± 0.03
MUL1 (UniProt Q969V5)	0.992 ± 0.02	1.01 ± 0.055
NDRG1 (UniProt Q92597)	0.96 ± 0.021	0.984 ± 0.033
UniProt Q8TD26 and related entries	1.06 ± 0.037	1.11 ± 0.071
DDB2 (UniProt Q92466)	0.985 ± 0.034	1 ± 0.044
ISG20 (UniProt Q96AZ6)	1.18 ± 0.18	1.16 ± 0.11
SECISBP2L (UniProt Q93073)	0.945 ± 0.13	0.922 ± 0.13
AKAP1 (UniProt Q92667)	0.996 ± 0.03	1.01 ± 0.029
ZCRB1 (UniProt Q8TBF4)	1.06 ± 0.084	0.979 ± 0.13
ZKSCAN4 (UniProt Q969J2)	0.995 ± 0.068	0.897 ± 0.07
CHAC2 (UniProt Q8WUX2)	0.987 ± 0.048	0.95 ± 0.091
UniProt Q92766 and related entries	1.01 ± 0.021	1.07 ± 0.055
TOPBP1 (UniProt Q92547)	1.06 ± 0.029	1.08 ± 0.049

Single records (already shown).
NDRG1 (UniProt Q92597) is listed with NP40-soluble protein abundance (concentration: 0.1mM): 0.96 ± 0.021; NP40-soluble protein abundance (concentration: 0.5mM): 0.984 ± 0.033
CHAC2 (UniProt Q8WUX2) is listed with NP40-soluble protein abundance (concentration: 0.1mM): 0.987 ± 0.048; NP40-soluble protein abundance (concentration: 0.5mM): 0.95 ± 0.091
AKAP1 (UniProt Q92667) is listed with NP40-soluble protein abundance (concentration: 0.1mM): 0.996 ± 0.03; NP40-soluble protein abundance (concentration: 0.5mM): 1.01 ± 0.029

The results go on.

Target	NP40-soluble protein abundance (concentration: 0.1mM)	NP40-soluble protein abundance (concentration: 0.5mM)
ZUP1 (UniProt Q96AP4)	1.03 ± 0.029	0.976 ± 0.066
UniProt Q8TBE0 and related entries	1.06 ± 0.028	0.979 ± 0.041
UniProt Q8WY54 and related entries	0.981 ± 0.082	0.947 ± 0.076
GPKOW (UniProt Q92917)	1.04 ± 0.031	1.07 ± 0.016
DDX1 (UniProt Q92499)	1.05 ± 0.063	1.04 ± 0.069
RAB2B (UniProt Q8WUD1)	1.01 ± 0.037	1.04 ± 0.11
KBTBD7 (UniProt Q8WVZ9)	1.06 ± 0.059	1.07 ± 0.025
RFK (UniProt Q969G6)	1.04 ± 0.053	1.09 ± 0.099
UniProt Q92989 and related entries	1.03 ± 0.065	1.07 ± 0.023
UniProt Q8TDQ7 and related entries	1.04 ± 0.078	0.987 ± 0.025
PI4K2B (UniProt Q8TCG2)	1.03 ± 0.091	0.955 ± 0.055
UniProt Q969H8	1.04 ± 0.14	1.06 ± 0.068
UniProt Q96BD5 and related entries	0.978 ± 0.058	0.979 ± 0.038
BRI3BP (UniProt Q8WY22)	0.907 ± 0.056	0.982 ± 0.011
SCFD1 (UniProt Q8WVM8)	1.04 ± 0.047	1.04 ± 0.051
UniProt Q969P0 and related entries	1 ± 0.072	1.02 ± 0.035
CCDC12 (UniProt Q8WUD4)	0.847 ± 0.17	0.774 ± 0.22
UBASH3B (UniProt Q8TF42)	1.03 ± 0.06	1.04 ± 0.051
DOCK2 (UniProt Q92608)	1.05 ± 0.07	1.16 ± 0.068
